Data as given in US20230151437A1, “USE OF PROTEIN ASSEMBLIES TO RECORD CELLULAR EVENTS” (President and Fellows of Harvard College, priority 2021, published 2023).
These are yes or no findings as the source states them, for the method shown. Some results given as binding are weak or reduced against the parent protein; the word gives no strength. Sequences can lack the tags named with a protein.

Key:
[1] = molecular target: iPAK4 (fusion of the catalytic domain of the Pak4 kinase and the 38 amino acid iBox domain of its inhibitor Inka1); experiment: PMA-induced cFos::eGFP-iPAK4 in neurons with HT dye timestamps; confocal imaging
[2] = molecular target: iPAK4 (fusion of the catalytic domain of the Pak4 kinase and the 38 amino acid iBox domain of its inhibitor Inka1); experiment: Tet-ON induced eGFP-iPAK4 in HEK cells; confocal imaging of incorporation into iPAK4 assemblies
[3] = molecular target: iPAK4 (fusion of the catalytic domain of the Pak4 kinase and the 38 amino acid iBox domain of its inhibitor Inka1); experiment: PMA-induced cFos::eGFP-iPAK4 in neurons; fluorescence imaging of incorporation into iPAK4 assemblies

Measured: binding

B1: eGFP-iPAK4 (protein)
chain: MSKGEELFTGVVPILVELDGDVNGYKFSVSGEGEGDATYGKLTLKFICTTGKLPVPWPTLVTTLTYGVQCFSRYPDHMKRHDFFKSAMPEGYVQERTIFFKDDGNYKTRAEVKFEGDTLVNRIELKGIDFKEDGNILGHKLEYNYNSHNVYIMADKQKNGIKANFKTRHNIEDGGVQLADHYQQNTPIGDDPVLLPDNHYLSTQSALSKDPNEKRDHMVILEFVTAAGITHGMDELYKSGGSEAEDWTAALLNRGRSRQPLVLGDNCFADLVHNWMELPEEFPAAPAVPGPPGPRSPQREPQRVSHEQFRAALQLVVDPGDPRSYLDNFIKIGEGSTGIVCIATVRSSGKLVAVKKMDLRKQQRRELLFNEVVIMRDYQHENVVEMYNSYLVGDELWVVMEFLEGGALTDIVTHTRMNEEQIAAVCLAVLQALSVLHAQGVIHRDIKSDSILLTHDGRVKLSDFGFCAQVSKEVPRRKSLVGTPYWMAPELISRLPYGPEVDIWSLGIMVIEMVDGEPPYFNEPPLKAMKMIRDNLPPRLKNLHKVSPSLKGFLDRLLVRDPAQRATAAELLKHPFLAKAGPPASIVPLMRQNRTR
binds: [1] | [2] | [3]
